{
  "source": "paper PMC7150867",
  "about": "“Molecular Imaging of Galectin-1 Expression as a Biomarker of Papillary Thyroid Cancer by Using Peptide-Functionalized Imaging Probes” (Biology, 2020)",
  "origin": "cited, not measured here",
  "tested_on": "gal-1",
  "conditions": "immunohistochemistry on human thyroid biopsy samples",
  "description": "Thyroid cancers are the most frequent endocrine cancers and their incidence is increasing worldwide. Thyroid nodules occur in over 19–68% of the population, but only 7–15% of them are diagnosed as malignant. Diagnosis relies on a fine needle aspiration biopsy, which is often inconclusive and about 90% of thyroidectomies are performed for benign lesions. Galectin-1 has been proposed as a confident biomarker for the discrimination of malignant from benign nodules. We previously identified by phage display two peptides (P1 and P7) targeting galectin-1, with the goal of developing imaging probes f ... || Aiming to develop a non-invasive diagnostic strategy able to discriminate benign from malignant thyroid lesions, we previously identified by phage display two gal-1-targeted 12-mer linear peptides, namely P1 and P7 [28], which could be used to functionalize imaging probes for molecular imaging of thyroid nodules and tumors. Their specific binding to gal-1 was confirmed by various methods before and after coupling to ultra-small superparamagnetic particles of iron oxide (USPIO), a contrast agent for magnetic resonance imaging (MRI). The two peptides discriminate thyroid carcinoma from benign ... || To validate the effectiveness of gal-1-targeted peptides, another type of probe and therefore imaging of thyroid cancer was explored. […]",
  "data": [
    {"sequence": "HLWGWLYAPSFQ [Peptide P1, gal-1-targeted 12-mer linear peptide identified by phage display]", "values": [
      {"measurement": "sensitivity of discriminating thyroid carcinoma from benign thyroid cases", "result": 65, "unit": "%"},
      {"measurement": "specificity of discriminating thyroid carcinoma from benign thyroid cases", "result": 67, "unit": "%"}
    ]}
  ]
}
